This experiment concerns CD2F1 mice, L1210 leukemia ip, survival T/C. Kind of experiment: NCI In Vivo Anticancer Drug Screen. Data for tumor model L1210 Leukemia (intraperitoneal) in CD2F1 (CDF1) mice. The following applies: T/C endpoint: mean survival time, higher T/C = longer survival. An outline of the steps: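 Vehicle-treated tumor-bearing mice served as controls (C) for compound-treated mice (T). Reported figure is T divided by C.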

The mark [1] stands for this setting: dose: 100.0 mg/kg/injection, schedule: Q04DX003 (ip), vehicle: saline with Tween-80.
Setting [2] is: dose: 200.0 mg/kg/injection, schedule: Q04DX003 (ip), vehicle: saline with Tween-80.
The mark [3] stands for this setting: dose: 400.0 mg/kg/injection, schedule: Q04DX003 (ip), vehicle: saline with Tween-80.
Setting [4] is: dose: 200.0 mg/kg/injection, schedule: Q01DX001 (ip), vehicle: saline with Tween-80.
Where [5] appears, read: dose: 200.0 mg/kg/injection, schedule: Q01DX009 (ip), vehicle: saline with Tween-80.
Setting [6] is: dose: 400.0 mg/kg/injection, schedule: Q01DX009 (ip), vehicle: saline with Tween-80.
Where [7] appears, read: dose: 100.0 mg/kg/injection, schedule: Q01DX009 (ip), vehicle: saline with Tween-80.

The values that follow come from PubChem BioAssay AID256 (DTP/NCI, 2004).

The list does not hold the whole screen: it gathers tests that were run many times, whatever their T/C, doses with no T/C, and many T/C values between a quarter and a half above the control. Further doses and runs are listed elsewhere. T/C: endpoint of the treated group in % of that of the vehicle group. Some doses have a count of surviving animals in place of a T/C: the source files T/C as zero there, which appears to mark a toxic dose or a test without result, not a measured value. Some survivor counts are full or nearly so, which does not show that the dose was tolerated: the source hardly ever lists a survival T/C far under the control, and the zero likely stands for such cases as well. Survivors were counted at the toxicity check, usually on the fifth day, unless a day is given; later deaths do not show. Schedules are NCI's codes, taken here to give the interval after Q, in days (D) or hours (H), and the number of doses after X. Some entries hold several experiments; the results are listed from low to high. Where survival is the endpoint, this PubChem deposit counts one and a half times the control or more as active, and values a quarter to a half above the control carry no call in these data; other NCI protocols may use other cut-offs. Some T/C values carry the count of animals alive at the toxicity check (mostly the fifth day); without a count, all were alive then.

As for `Cc1ccc(S(=O)(=O)OC/C(=C(/c2ccccc2)c2ccc(Cl)cc2)c2ccccc2)cc1`, the survivor count reads like this: under setting [1], 1 of 6; under setting [2], 0 of 6; under setting [3], 0 of 6.
Consider `Cc1cc(=O)c(Cl)cc(=O)[nH]1`, for which, for the setting “dose: 50.0 mg/kg/injection, schedule: Q01DX001 (ip), vehicle: saline with Tween-80”, the survivor count was 1 of 3.
Turning to `CCc1ccc(-n2cnc3c(=O)[nH]c(N)nc32)cc1`, the survivor count under setting [4] is on record as 6 of 6.
With `O.O.O.O.[Fe].[Fe].[Fe].[NH-]c1c(C(=O)O)ncn1C1[OH+]C(CO)C(O)C1O.[NH-]c1c(C(=O)O)ncn1C1[OH+]C(CO)C(O)C1O` (centres undefined), the survivor count (dose: 100.0 mg/kg/injection, schedule: Q01DX005 (ip), vehicle: distilled water + Tween-80) is recorded as 6 of 6.
As for `CCCCC#CC(=O)CCCCC`, under setting [5], the survivor count is 0 of 3.
As to `CN(C)c1nc(Cl)cc2c1ncn2C1OC(CO)C(O)C1O` (centres undefined), where the note is “dose: 200.0 mg/kg/injection, schedule: Q01DX005 (ip), vehicle: saline”, the T/C was 148 % of control.
Consider `O=C1c2ccccc2C(=O)N1c1ccc(Br)cc1`, for which the survivor count (dose: 200.0 mg/kg/injection, schedule: Q01DX001 (ip), vehicle: Klucel (hydroxypropylcellulose) (HPC)) is 1 of 3.
Turning to `O=C(CN1CC1)NCCCCCCCCNC(=O)CN1CC1`, the T/C was 128 % of control (dose: 10.0 mg/kg/injection, schedule: Q01DX009 (ip), vehicle: carboxymethylcellulose (CMC)); 148 % of control (dose: 15.0 mg/kg/injection, schedule: Q01DX009 (ip), vehicle: carboxymethylcellulose (CMC)); 134 % of control (dose: 50.0 mg/kg/injection, schedule: Q01DX001 (ip), vehicle: carboxymethylcellulose (CMC)); 136 % of control [5 of 6 alive] (dose: 75.0 mg/kg/injection, schedule: Q01DX001 (ip), vehicle: carboxymethylcellulose (CMC)).
For `NC(CCCCNC(c1ccccc1)(c1ccccc1)c1ccccc1)C(=O)O` (centres undefined), the survivor count reads like this: (dose: 200.0 mg/kg/injection, schedule: Q01DX009 (ip), vehicle: saline) 0 of 6; (dose: 300.0 mg/kg/injection, schedule: Q01DX009 (ip), vehicle: saline) 0 of 6; (dose: 400.0 mg/kg/injection, schedule: Q01DX009 (ip), vehicle: saline) 0 of 6.
Take `C=CC[n+]1ccccc1Cc1ccccc1`: for the setting “dose: 100.0 mg/kg/injection, schedule: Q01DX001 (ip), vehicle: saline”, the survivor count is given as 0 of 3.
For the compound `COc1cc(OC)c(OC)cc1/C=C\c1ccc2ccccc2[n+]1C`, the survivor count (dose: 50.0 mg/kg/injection, schedule: Q01DX009 (ip), vehicle: saline with Tween-80) is recorded as 4 of 6; the survivor count under setting [2] is 0 of 6; the survivor count under setting [3] is 0 of 6.
Consider `c1ccc2c(c1)ccc1c[n+]3ccccc3cc12`, for which the survivor count is 0 of 6 (dose: 2.5 mg/kg/injection, schedule: Q01DX009 (ip), vehicle: saline with Tween-80); 0 of 6 (dose: 5.0 mg/kg/injection, schedule: Q01DX009 (ip), vehicle: saline with Tween-80); 0 of 6 (dose: 10.0 mg/kg/injection, schedule: Q04DX003 (ip), vehicle: saline sonified); 0 of 6 (dose: 20.0 mg/kg/injection, schedule: Q04DX003 (ip), vehicle: saline sonified).
Turning to `CC1=CC(c2ccccc2)=CC(C)(C)C1` (tested in a mixture with another compound), the survivor count reads like this: under setting [2], 6 of 6; under setting [3], 4 of 6.
Turning to `O=C(CC(O)(C(F)(F)F)C(F)(F)F)c1ccco1`, the survivor count was 0 of 6 under setting [5] and 0 of 6 under setting [3].
For `CC1CCC2NCCCC2C1` (centres undefined), the survivor count was 0 of 3 (dose: 100.0 mg/kg/injection, schedule: Q04DX002 (ip), vehicle: saline with Tween-80); 0 of 3 (dose: 200.0 mg/kg/injection, schedule: Q04DX002 (ip), vehicle: saline with Tween-80); 0 of 3 (dose: 400.0 mg/kg/injection, schedule: Q04DX002 (ip), vehicle: saline with Tween-80).
Turning to `CC(=O)ON=C1C=CC(=C(C#N)c2ccccc2)C=C1`, the survivor count by setting is: under setting [1], 6 of 6; under setting [3], 2 of 6.
Turning to `COc1cc(NC(=O)O/N=C/c2ccccn2)cc(OC)c1OC`, under setting [4], the survivor count is recorded as 6 of 6.
Take `Cc1ccc(S(=O)(=O)N/N=C(\C(=O)O)c2ccccc2)cc1`: the survivor count (dose: 400.0 mg/kg/injection, schedule: Q01DX009 (ip), vehicle: Klucel (hydroxypropylcellulose) (HPC)) was 6 of 6.
On to `COc1ccc(C(=O)/C=C/c2ccc3cc(OC)c(OC)cc3c2)cc1OC`, for which the survivor count is recorded as 6 of 6 (dose: 100.0 mg/kg/injection, schedule: Q01DX009 (ip), vehicle: water); 6 of 6 (dose: 200.0 mg/kg/injection, schedule: Q01DX009 (ip), vehicle: water); 6 of 6 (dose: 400.0 mg/kg/injection, schedule: Q01DX009 (ip), vehicle: water).
In the case of `O=C(O)/C=C/C(=O)Nc1ccc(I)cc1`, the survivor count under setting [6] is reported as 0 of 6.
On to `CCOC(=O)c1ccc(OC(=O)Nc2cc(C)ccc2C)cc1`, for which the T/C is 98, 103, 113 [5 of 6 alive], 114 % of control under setting [7] and 86, 100 [4 of 6 alive], 103, 114 % of control under setting [5]. Also, under setting [6], the survivor count is 1 of 6 and 1 of 3.
As for `Nc1ncnc(N)c1NC(=O)c1cccc(Br)c1`, the survivor count by setting is: under setting [1], 2 of 6; under setting [2], 0 of 6; under setting [3], 1 of 6.
For `O=C(NC(=O)c1ccccc1)Nc1ccccc1`, the survivor count under setting [5] was 6 of 6.
As for `COC(=O)C1=CCC=CC1`, under setting [6], the survivor count was 2 of 6.
In the case of `CCC(=O)c1ccc(NC(=O)Nc2ncccn2)cc1`, the survivor count (dose: 200.0 mg/kg/injection, schedule: Q01DX009 (ip), vehicle: Klucel (hydroxypropylcellulose) (HPC)) was 2 of 3.
Consider `CCC(=O)NC1=CC(=O)c2ccccc2C1=O`, for which the survivor count under setting [7] is on record as 2 of 6.
